Reference: PubChem BioAssay AID1159584 (Peter MacCallum Cancer Centre, 2016)

- Test: 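Knock-downs that harm CDH1-null cells more than parental MCF10A cells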 (primary screen)
- Cell system: human MCF10A breast epithelial cells, parental and CDH1-null
- Knock-down reagent: siRNA against human genes
- Measured: 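ATP luminescence (CellTiter-Glo) viability per line relative to mean mock wells over all plates, and the ratio of CDH1-null to parental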
- Direction: CDH1-null / parental viability ratio: higher = CDH1-null cells survive relatively better than parental
Here is an unselected part of about 18,000 reagents tested. Not all columns of the deposit are shown. Not given: the amount of reagent, the time to read-out.

RGS22 [SID152150554] — CDH1-null / parental viability ratio = 1.11
OR51G1 [SID134329887] — CDH1-null / parental viability ratio = 0.95
DHX29 [SID152149583] — CDH1-null / parental viability ratio = 0.86
TLCD4 [SID134320692] — CDH1-null / parental viability ratio = 0.82
CFAP70 [SID134320386] — CDH1-null / parental viability ratio = 1.1
RHOV [SID135621188] — CDH1-null / parental viability ratio = 0.75
HPF1 [SID152154403] — CDH1-null / parental viability ratio = 1.32
OR4N3P [SID135625525] — CDH1-null / parental viability ratio = 0.98
GNL3 [SID134320317] — CDH1-null / parental viability ratio = 1.13
CCR3 [SID134310901] — CDH1-null / parental viability ratio = 0.87
RXFP3 [SID152153336] — CDH1-null / parental viability ratio = 1.41
FOXN2 [SID134313718] — CDH1-null / parental viability ratio = 1.05
NUP58 [SID135622626] — CDH1-null / parental viability ratio = 1.12
PRSS53 [SID135625435] — CDH1-null / parental viability ratio = 0.81
IL2RG [SID135621483] — CDH1-null / parental viability ratio = 1.05
FBXO46 [SID152154170] — CDH1-null / parental viability ratio = 0.89
PPARG [SID152151402] — CDH1-null / parental viability ratio = 1.12
GPR63 [SID135621031] — CDH1-null / parental viability ratio = 0.72
PLEC [SID135620761] — CDH1-null / parental viability ratio = 1.01
KLHL18 [SID135622761] — CDH1-null / parental viability ratio = 0.83
AIMP2 [SID135622276] — CDH1-null / parental viability ratio = 0.97
TMEM186 [SID152153977] — CDH1-null / parental viability ratio = 1
EDNRB [SID134309999] — CDH1-null / parental viability ratio = 1.29
PCYOX1 [SID134314808] — CDH1-null / parental viability ratio = 1.18
ZSCAN16 [SID134318727] — CDH1-null / parental viability ratio = 0.91
FEN1 [SID134314917] — CDH1-null / parental viability ratio = 0.95
ZNF713 [SID134322669] — CDH1-null / parental viability ratio = 1.29
TXNL4A [SID134313238] — CDH1-null / parental viability ratio = 1.06
ACSL3 [SID134314708] — CDH1-null / parental viability ratio = 1.11
SDHA [SID135621763] — CDH1-null / parental viability ratio = 1.03
WDR59 [SID134325481] — CDH1-null / parental viability ratio = 0.6
RAB24 [SID152156416] — CDH1-null / parental viability ratio = 1.2
TLE1 [SID135622960] — CDH1-null / parental viability ratio = 0.97
NDN [SID135622455] — CDH1-null / parental viability ratio = 1.5
LTB [SID134315021] — CDH1-null / parental viability ratio = 1.22

Single entries from the list.
Under “CDH1-null / parental viability ratio”, GNL3 [SID134320317] is entered as 1.13
Entry of FEN1 [SID134314917] under “CDH1-null / parental viability ratio”: 0.95
For “CDH1-null / parental viability ratio”, FOXN2 [SID134313718] is entered as 1.05
Entry of ACSL3 [SID134314708] in “CDH1-null / parental viability ratio”: 1.11
For “CDH1-null / parental viability ratio”, IL2RG [SID135621483] has 1.05
